Results are given in words; binding and its absence hold for the method and conditions named. Some binding calls cover weakened binding; strength is not graded here. Tags and fused reporters may be left off the sequences shown.
Legend:
[1] = target: T1, human NDF N-terminal PWWP domain (amino acids 1–91), His6-tagged truncation (human) (UniProt Q49A26); test: pull-down; 40 pmol His6-tagged NDF truncate or mutant captured on Ni-NTA beads with 20 pmol yeast or human Pol II in 300 μL; 10 mM Tris-HCl pH 7.5, 200 mM NaCl, 0.2% Nonidet P-40, 10% glycerol; 4 °C, 3 h; SDS-PAGE with Coomassie blue or silver staining (yeast Pol II) or Western blot (human Pol II); both purified
T1 sequence: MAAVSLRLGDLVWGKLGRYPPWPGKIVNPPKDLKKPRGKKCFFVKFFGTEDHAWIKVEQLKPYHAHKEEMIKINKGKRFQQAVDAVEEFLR

Chains of the proteins cited; added tags and fusions are not shown. Lines headed by an entry give the natural chain unless they say otherwise; changes in a name come on top.
UniProt P04050: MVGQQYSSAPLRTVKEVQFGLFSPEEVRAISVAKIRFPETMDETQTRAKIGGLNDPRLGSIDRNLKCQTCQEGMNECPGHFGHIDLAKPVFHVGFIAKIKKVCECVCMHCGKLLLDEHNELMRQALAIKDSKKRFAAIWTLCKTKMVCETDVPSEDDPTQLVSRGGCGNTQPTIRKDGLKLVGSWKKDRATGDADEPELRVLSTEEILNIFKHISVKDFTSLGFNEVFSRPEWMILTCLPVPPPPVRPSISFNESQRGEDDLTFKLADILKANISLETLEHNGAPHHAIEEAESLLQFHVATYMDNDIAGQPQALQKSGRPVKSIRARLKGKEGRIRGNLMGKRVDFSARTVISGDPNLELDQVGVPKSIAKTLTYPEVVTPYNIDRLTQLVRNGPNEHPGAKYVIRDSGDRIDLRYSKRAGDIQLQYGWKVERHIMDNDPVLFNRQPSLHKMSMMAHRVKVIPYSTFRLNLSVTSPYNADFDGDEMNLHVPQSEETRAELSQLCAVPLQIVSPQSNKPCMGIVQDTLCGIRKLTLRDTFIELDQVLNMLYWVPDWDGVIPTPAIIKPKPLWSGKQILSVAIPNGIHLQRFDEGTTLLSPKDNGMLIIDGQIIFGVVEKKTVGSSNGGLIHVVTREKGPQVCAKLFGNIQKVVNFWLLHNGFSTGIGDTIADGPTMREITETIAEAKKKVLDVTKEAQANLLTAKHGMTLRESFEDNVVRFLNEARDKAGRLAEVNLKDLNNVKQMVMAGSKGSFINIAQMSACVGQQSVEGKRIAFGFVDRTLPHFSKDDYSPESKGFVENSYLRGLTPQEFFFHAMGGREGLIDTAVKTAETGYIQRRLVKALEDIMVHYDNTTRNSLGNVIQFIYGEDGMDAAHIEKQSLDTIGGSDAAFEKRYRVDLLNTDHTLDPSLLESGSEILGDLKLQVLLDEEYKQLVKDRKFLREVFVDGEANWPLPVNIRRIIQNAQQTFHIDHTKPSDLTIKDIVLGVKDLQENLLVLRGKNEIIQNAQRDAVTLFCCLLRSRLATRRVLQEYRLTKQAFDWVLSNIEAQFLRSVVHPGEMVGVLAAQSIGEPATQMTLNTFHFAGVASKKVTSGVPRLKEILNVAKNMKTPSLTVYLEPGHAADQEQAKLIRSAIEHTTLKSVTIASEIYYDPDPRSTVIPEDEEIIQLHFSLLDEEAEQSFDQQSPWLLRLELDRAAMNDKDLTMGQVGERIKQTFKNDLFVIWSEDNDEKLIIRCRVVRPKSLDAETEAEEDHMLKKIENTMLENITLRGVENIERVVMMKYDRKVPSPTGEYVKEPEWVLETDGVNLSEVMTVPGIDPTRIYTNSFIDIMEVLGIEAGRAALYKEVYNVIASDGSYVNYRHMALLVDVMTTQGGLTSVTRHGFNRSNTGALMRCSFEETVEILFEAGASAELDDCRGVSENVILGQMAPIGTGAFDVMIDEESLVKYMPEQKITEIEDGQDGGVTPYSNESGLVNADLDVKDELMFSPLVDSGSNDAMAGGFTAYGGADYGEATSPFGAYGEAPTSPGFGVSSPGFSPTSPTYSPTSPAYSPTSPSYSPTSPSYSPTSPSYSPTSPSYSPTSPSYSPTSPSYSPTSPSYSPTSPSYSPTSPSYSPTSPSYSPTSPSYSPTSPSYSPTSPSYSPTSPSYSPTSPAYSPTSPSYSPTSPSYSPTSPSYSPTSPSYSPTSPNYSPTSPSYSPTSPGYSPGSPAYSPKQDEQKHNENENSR

[2] = target: T2, human NDF central portion (amino acids 101–226), His6-tagged truncation (human) (UniProt Q49A26); test: as above
T2 sequence: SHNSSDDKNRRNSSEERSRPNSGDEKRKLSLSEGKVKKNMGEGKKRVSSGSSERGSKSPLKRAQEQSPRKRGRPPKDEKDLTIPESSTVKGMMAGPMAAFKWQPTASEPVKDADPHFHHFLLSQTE

Question: For “S. cerevisiae RNA Polymerase II (Pol II) (from UniProt P04050 1-1733; P08518 1-1224; P16370 1-318; P20433 1-221; P20434 1-215; P20435 1-155; P34087 1-171; P20436 1-146; P27999 1-122; P22139 1-70; P38902 1-120; P40422 1-70) (complex)”, which binding [1] is on record?
Answer: binds

Question: What about the binding [2] of the same substance?
Answer: binds

Source: PMC12112590
